Test results as given in article PMC10149453, “Three segment ligation of a 104 kDa multi-domain protein by SrtA and OaAEP1” (Journal of Biomolecular Nmr, 2022).
Results are given in words; binding and its absence hold for the method and conditions named. Some binding calls cover weakened binding; strength is not graded here.

Amino acid sequences for entries named in this document (tags omitted). A change or cut given only in a name is not applied to a line headed by its entry.
UniProt P58301: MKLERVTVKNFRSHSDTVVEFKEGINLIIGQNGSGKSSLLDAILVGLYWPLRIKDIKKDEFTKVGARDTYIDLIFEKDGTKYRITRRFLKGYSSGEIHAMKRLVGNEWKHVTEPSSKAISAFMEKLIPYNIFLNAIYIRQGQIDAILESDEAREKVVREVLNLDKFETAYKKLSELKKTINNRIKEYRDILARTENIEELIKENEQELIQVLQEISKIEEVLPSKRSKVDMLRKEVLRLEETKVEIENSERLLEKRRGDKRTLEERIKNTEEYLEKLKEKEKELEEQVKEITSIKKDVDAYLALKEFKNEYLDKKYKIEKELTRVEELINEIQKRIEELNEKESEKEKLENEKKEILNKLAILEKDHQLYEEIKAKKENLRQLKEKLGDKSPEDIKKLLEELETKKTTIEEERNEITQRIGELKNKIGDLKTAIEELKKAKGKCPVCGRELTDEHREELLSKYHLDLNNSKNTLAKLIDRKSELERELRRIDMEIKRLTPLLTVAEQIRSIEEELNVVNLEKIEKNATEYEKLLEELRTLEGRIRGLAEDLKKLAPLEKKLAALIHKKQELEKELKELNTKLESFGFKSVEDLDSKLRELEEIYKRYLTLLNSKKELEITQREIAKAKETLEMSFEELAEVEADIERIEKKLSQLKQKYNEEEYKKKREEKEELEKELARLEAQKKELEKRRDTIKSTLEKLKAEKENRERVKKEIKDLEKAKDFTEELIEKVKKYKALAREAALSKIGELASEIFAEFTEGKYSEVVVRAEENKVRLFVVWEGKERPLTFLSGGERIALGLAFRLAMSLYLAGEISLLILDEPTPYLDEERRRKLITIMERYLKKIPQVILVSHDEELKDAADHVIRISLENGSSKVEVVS

Target: (MK-6HisTEV) Pf Rad50 C-Terminal coiled-coil-NBD (aa 503 – 882) (P. furiosus) (UniProt P58301)
Assay: co-purification on a Ni affinity column after co-expression; Ncc (no tag) and (6HisTEV)ccC co-expressed in E. coli; purified through a HisTrap HP column by the 6His tag of ccC

## Pf Rad50 N-terminal NBD-coiled-coil (aa 1 – 386)-NAL (from UniProt P58301 1-386) (domain or fragment)
  binding: binds
